According to PubChem BioAssay AID2685 (National Center for Advancing Translational Sciences (NCATS), 2010):
The list shows a part of the results. Further columns of the screen follow, without active or inactive calls. Compounds called inactive in the main read-out are mostly missing here. Words in brackets tell the shape of the fitted curve; partial curves, single points and poor fits give uncertain potencies.

Experiment: qHTS Assay for Lipid Storage Modulators in Drosophila S3 Cells;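 on cell number change: cells counted by Cell Tracker Red CMTPX staining in the red channel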
Conditions: BODIPY lipid droplet fluorescence, 18-24 h; for cell number change: measured here: cell count max response, cells fed with added oleic acid
How it was run: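 Laser-scanning cytometry quantifies lipid droplet accumulation (500–530 nm total intensity; droplet/cell object ratio) in oleic acid-fed (400 uM added) Drosophila S3 cells treated with a concentration series. 20 uM Triacsin C defined 100% inhibition.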

[1] = measured here: cell number channel AC50, cells fed with added oleic acid
[2] = measured here: lipid fluorescence (Fed channel) AC50, cells fed with added oleic acid

Compound | cell number change | AC50 [1] | AC50 [2]
O=C(Cn1c(C(F)(F)F)nc2ccccc21)Oc1cccc(C(F)(F)F)c1 | -35.1% | 0.291 µM [falling, partial curve, poor fit] | 0.13 µM [falling, full curve, poor fit]
O=c1c2ccccc2c(/C=N/NS(=O)(=O)c2ccccc2)c(O)n1-c1ccccn1 | -2.71% | 0.517 µM [rising, full curve] | 
COc1ccc2c(Cl)c(-c3nnc4n3CCCCC4)sc2c1 | 17.5% | 0.58 µM [rising, full curve, poor fit] | 2.31 µM [falling, partial curve]
CC1Cc2ccccc2N1C(=O)COC(=O)CCc1nc2ccccc2c(=O)[nH]1 (stereo not drawn) | -3.12% |  | 
CN(C)S(=O)(=O)c1cc(NC(=O)COC(=O)C2CSC3(C)CCC(=O)N23)ccc1Cl (stereo not drawn) | 11% |  | 0.00411 µM [rising, full curve, poor fit]
CCOC(=O)C1=C(N)OC2=C(C(=O)CCC2)C1c1ccccc1OCC (stereo not drawn) | 84.4% | 18.4 µM [rising, partial curve] | 
O=C(CCN1CCC(c2ccccc2)C1)c1cccs1 (stereo not drawn) | -12% |  | 2.59 µM [rising, single point]
COc1ccc2ccc(C(C)(C(C)=O)C(=O)OC(C)C)cc2c1 (stereo not drawn) | 6.92% | 0.291 µM [falling, partial curve, poor fit] | 0.00651 µM [rising, full curve, poor fit]
Cc1ccc(S(=O)(=O)N(C)CC(=O)N2CCN(Cc3ccccc3)CC2)cc1 | -29.2% |  | 
Cc1ccc(Sc2cc(C(F)(F)F)nc(N(C)C)n2)cc1 | -3.24% |  | 0.731 µM [falling, full curve, poor fit]
Cc1cccc(NC(=O)Nc2ccc([N+](=O)[O-])cc2)n1 | 14.1% |  | 
CC1CCCCN1C(=O)COC(=O)c1cc([N+](=O)[O-])ccc1N1CCOCC1 (stereo not drawn) |  |  | 16.4 µM [falling, single point]
Cc1cc(=O)oc2cc(OCC(=O)Nc3nnc(C4CC4)s3)ccc12 | 16.6% |  | 8.2 µM [rising, partial curve, poor fit]
CC(C)(C)C1=NN=C2c3ccccc3C(=O)C21 (stereo not drawn) | -44.4% | 2.91 µM [falling, full curve, poor fit] | 4.11 µM [falling, single point]
CC(C)[C@H]1COCCS(=O)(=O)N1Cc1cccc(Cl)c1 | 11.3% |  | 
O=C(CCC(=O)N(CC(=O)NC1CCCC1)Cc1cccs1)Nc1nccs1 | 21.4% |  | 0.651 µM [rising, full curve]
Cc1nn(-c2ccc(F)cc2)c(Cl)c1/C=C(\CCC(=O)O)c1nc2ccccc2s1 | -6.39% |  | 
CSc1cnc2c(N)nc(N(C)C)nc2n1 |  | 6.51 µM [rising, partial curve, poor fit] | 6.51 µM [rising, single point]
CCc1ccc(NC(=O)CSc2nc(=O)n(CCCN(C)C)c3c2CCC3)cc1 | -2.56% |  | 0.58 µM [falling, single point]
O=C(Cc1cccs1)Nc1nc(-c2ccc(F)c(F)c2)cs1 | 5.13% |  | 29.1 µM [rising, single point]

In another format: two of the compounds above
Compound,cell number change,AC50 [1],AC50 [2]
O=C(CCC(=O)N(CC(=O)NC1CCCC1)Cc1cccs1)Nc1nccs1,21.4%,,"0.651 µM [rising, full curve]"
Cc1nn(-c2ccc(F)cc2)c(Cl)c1/C=C(\CCC(=O)O)c1nc2ccccc2s1,-6.39%,,

Later entries.

Compound | cell number change | AC50 [1] | AC50 [2]
FC(F)(F)c1ccc(-c2nnc(-c3cccnc3)o2)cc1 | 2.65% |  | 29.1 µM [falling, single point]
CCCCc1oc2ccccc2c1C(=O)c1cc(I)c(OCCN(CC)CC)c(I)c1 | -75.5% | 25.9 µM [falling, single point] | 32.6 µM [falling, partial curve]
Cc1nn2c(C)c(C(=O)Nc3ccccc3)cnc2c1C#N |  | 0.291 µM [rising, full curve] | 
COCCCN=Cc1c(-c2ccccc2)[nH]n(-c2nc3ccccc3s2)c1=O | 6.66% |  | 6.51 µM [falling, single point]
CC(C)(C)C(=O)Cn1ncc(Cl)c(Cl)c1=O | 34.8% | 14.6 µM [rising, single point] | 23.1 µM [rising, single point]
COc1cc(CCNC(=O)c2cnn3ccccc23)cc(OC)c1OC | 11.2% |  | 25.9 µM [falling, single point]
O=C(OCCOCCN=C1NS(=O)(=O)c2ccccc21)c1ccc(F)cc1 |  |  | 0.708 µM [falling, full curve]
CCOC(=O)c1c(-c2ccc(C)c(C)c2)csc1NC(=O)C1CC=CCC1C(=O)O (stereo not drawn) | -82.8% | 29.1 µM [falling, single point] | 
CCN(CC)S(=O)(=O)c1ccc(OC)c(NC(=S)Nc2cccc(C)c2C)c1 | -5.55% |  | 3.26 µM [rising, full curve]
Cc1ccc(OCCC(=O)OCC(=O)Nc2ccc(F)cc2)cc1 | -75% | 29.1 µM [falling, single point] | 
O=C(NCc1ccccn1)c1cc(S(=O)(=O)N2CCCCCC2)ccc1Cl | 0.276% |  | 
COc1ccc(C(=O)OCC(=O)C(C)(C)C)cc1S(=O)(=O)N(C)CCc1cccnc1 | -25.4% | 6.51 µM [rising, single point] | 11.6 µM [falling, single point]
CCc1ccccc1NC(=O)C1(S(=O)(=O)c2ccc(C)cc2)CC1 | -2.86% |  | 29.1 µM [rising, single point]
O=C(CNC(=O)c1cccs1)OCC(=O)c1ccc(Cl)cc1 | -1.38% |  | 4.61 µM [falling, single point]
COc1cc(-c2nc3n(n2)C(c2ccncc2)C(C(N)=O)=C(C)N3)cc(OC)c1OC (stereo not drawn) | 17.2% |  | 
O=C1OC(N2CCN(C(=O)C3CCCO3)CC2)c2ccccc21 (stereo not drawn) | -25.4% | 0.731 µM [falling, full curve, poor fit] | 0.00461 µM [falling, full curve]
Cc1ccc(C)c(NC(=O)CSc2cccc3cccnc23)c1 | -3.97% |  | 
c1ccc2c(c1)nc(N1CCOCC1)c1ccccc12 | -63.2% | 18.4 µM [falling, single point] | 29.1 µM [falling, partial curve, poor fit]
COc1cc2cc(C(=O)N/N=C/c3ccc(F)cc3)[nH]c2cc1OC | 39.6% |  | 
O=C(c1ccccc1F)N1CCN(c2ccccn2)CC1 | 3.7% |  | 29.1 µM [rising, single point]

A different layout for some results above:
Cc1ccc(Sc2cc(C(F)(F)F)nc(N(C)C)n2)cc1
  cell number change: -3.24%
  AC50 [2]: 0.731 µM [falling, full curve, poor fit]
Cc1cccc(NC(=O)Nc2ccc([N+](=O)[O-])cc2)n1
  cell number change: 14.1%

Additional records:

Compound | cell number change | AC50 [1] | AC50 [2]
COc1ccccc1CCc1nnc(CCC(=O)NC(C)Cc2cccc(C)n2)o1 (stereo not drawn) | 23.2% |  | 1.84 µM [rising, full curve, poor fit]
COc1ccccc1N(O)C1CC(=O)N(c2ccc(Br)cc2)C1=O (stereo not drawn) | -37.1% | 2.31 µM [falling, partial curve, poor fit] | 29.1 µM [falling, single point]
Cc1ccc(CNC(=O)CCS(=O)(=O)c2ccc3c(c2)NC(=O)C(C)S3)cc1 (stereo not drawn) | 14.1% |  | 1.84 µM [rising, single point]
CCOc1ccc(NC(=O)NCCN2CCN(c3ccccc3F)CC2)cc1 | -4.58% |  | 0.13 µM [falling, full curve, poor fit]
O=C(CSc1ncnc2ccccc12)Nc1ccc(N2CCOCC2)cc1 | 3.72% |  | 2.06 µM [rising, single point]
COC(=O)C1=CN(C2CC2)C=C(C(=O)OC)C1c1ccccc1OC | 0.0678% |  | 3.26 µM [rising, full curve]
Clc1ccccc1-c1nnc2sc(-c3ccncc3)nn12 | -15.5% |  | 0.184 µM [rising, full curve]
O=C(COC(=O)c1ccc(OC(F)F)cc1)NCCCN1CCCC1=O | 40.2% | 20.6 µM [rising, single point] | 
Cc1nnc(SC(C)C(=O)N(C)C2CCCCC2)n1N (stereo not drawn) | -1.12% |  | 1.64 µM [rising, partial curve]
COc1ccc2oc(=O)c(C(=O)Nc3ccccc3C)cc2c1 | -3.65% |  | 29.1 µM [falling, single point]
CNC(=O)CCn1nc(-c2ccc(Cl)cc2)c2ccccc2c1=O | 4.3% |  | 29.1 µM [rising, single point]
CC1(C)CC(=O)C=C(Nc2ccc(C(=O)O)c(O)c2)C1 | 21.6% |  | 29.1 µM [rising, single point]
CN(C)c1ccc(S(=O)(=O)NCC(=O)OCC(=O)c2ccc[nH]2)cc1[N+](=O)[O-] | -7.64% |  | 7.31 µM [falling, single point]
CCN(CC)S(=O)(=O)c1cc(NC(=O)CO/N=C(\N)c2ccccc2Cl)ccc1C | 35.7% | 2.06 µM [rising, full curve] | 20.6 µM [falling, partial curve, poor fit]
CCCCCCCCCCS(=O)(=O)N/N=C/c1ccc([N+](=O)[O-])cc1 | -72.7% | 23.1 µM [falling, partial curve] | 
CCc1c(C)nc(SCCOc2ccc(OC)cc2)[nH]c1=O | -0.566% |  | 29.1 µM [rising, single point]
COc1ccc(N2C(=O)CCC(C(=O)NCCN3CCOCC3)C2c2ccc(OC)c(OC)c2)cc1 (stereo not drawn) | 2.7% |  | 0.0731 µM [falling, full curve, poor fit]
COc1ccc(C(=O)Nc2nnc(S(=O)(=O)N3CCOCC3)s2)cc1 | -12.7% |  | 0.58 µM [falling, single point]
COc1ccc(NC(=O)CCN2CCCCC2)cc1 |  |  | 16.4 µM [falling, partial curve]
N#CC1=C(N)OC2=C(CC/C2=C\c2ccccc2)C1c1ccccc1 (stereo not drawn) | 34.9% | 0.0517 µM [rising, full curve, poor fit] | 
